These are yes or no findings as the source states them, for the method shown. Binding seen in cells or lysates may run through a third protein. Binding can be weak; no strength is given.
Molecular target: T1, MIF in 293T cells (UniProt P14174)
T1 sequence: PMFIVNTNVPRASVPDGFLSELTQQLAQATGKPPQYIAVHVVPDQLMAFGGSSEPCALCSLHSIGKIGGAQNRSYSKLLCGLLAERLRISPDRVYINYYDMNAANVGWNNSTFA
Experiment: co-IP; 293T cells transfected for 24 h with STUB1 truncation or mutation plasmids, lysed, coimmunoprecipitation and western blotting

## N-terminus of STUB1 (domain or fragment)
  binding: binds
